1 substance from paper PMC12550032 can be followed below.

The chains behind the UniProt entries cited, without tags or fusion partners.
UniProt P03470: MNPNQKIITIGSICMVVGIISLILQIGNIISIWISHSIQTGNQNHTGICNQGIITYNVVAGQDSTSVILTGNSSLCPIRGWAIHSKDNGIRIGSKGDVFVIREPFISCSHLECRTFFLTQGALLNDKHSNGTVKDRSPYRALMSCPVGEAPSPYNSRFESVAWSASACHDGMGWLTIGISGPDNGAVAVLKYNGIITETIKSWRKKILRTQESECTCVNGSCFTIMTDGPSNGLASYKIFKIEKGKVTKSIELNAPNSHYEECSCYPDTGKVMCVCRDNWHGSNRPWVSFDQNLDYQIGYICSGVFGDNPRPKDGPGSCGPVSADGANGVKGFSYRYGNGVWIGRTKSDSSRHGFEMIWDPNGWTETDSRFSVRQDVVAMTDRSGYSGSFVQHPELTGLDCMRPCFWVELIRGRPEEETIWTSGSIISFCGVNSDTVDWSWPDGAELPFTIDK

In this assay the target is neuraminidase (NA) of influenza A/WSN/1933 (H1N1) (Influenza A virus A/WSN/1933 (H1N1)) (UniProt P03470). Description: in situ cryo-electron tomography.

No constants are given. Whether binding was seen depends on the method and setting.

Take “neuraminidase (NA) of influenza A/WSN/1933 (H1N1) (from UniProt P03470 1-453)”: the binding result was “no binding”.
